In PubChem BioAssay AID2551 (National Center for Advancing Translational Sciences (NCATS), 2010):
The whole screen tested about 310,000 compounds, of which about 17,000 (5.5%) were called active. The inconclusive results got no clear call from the source; some entries with a clear call stand among them for comparison. The call rests on the fitted dose curve; in most records, active means well fitted inhibition curve with a large enough effect; inconclusive means small, poorly fitted or top-dose-only effect, or effect the other way; inactive means no such curve, though single readings can be large or run the other way. A potency beside an inconclusive call is a rough fit, not a confirmed value.
Further: nearly all actives have a fitted effect of over 60% in size.
On the % scale 0 is the no-effect control and ±100 the full control effect; potency means the concentration at half of the fitted maximal effect.

The chains behind the UniProt entries cited, without tags or fusion partners. Where a name states a change or a piece, a line headed by the entry shows the natural chain unless it says otherwise.
UniProt P51450: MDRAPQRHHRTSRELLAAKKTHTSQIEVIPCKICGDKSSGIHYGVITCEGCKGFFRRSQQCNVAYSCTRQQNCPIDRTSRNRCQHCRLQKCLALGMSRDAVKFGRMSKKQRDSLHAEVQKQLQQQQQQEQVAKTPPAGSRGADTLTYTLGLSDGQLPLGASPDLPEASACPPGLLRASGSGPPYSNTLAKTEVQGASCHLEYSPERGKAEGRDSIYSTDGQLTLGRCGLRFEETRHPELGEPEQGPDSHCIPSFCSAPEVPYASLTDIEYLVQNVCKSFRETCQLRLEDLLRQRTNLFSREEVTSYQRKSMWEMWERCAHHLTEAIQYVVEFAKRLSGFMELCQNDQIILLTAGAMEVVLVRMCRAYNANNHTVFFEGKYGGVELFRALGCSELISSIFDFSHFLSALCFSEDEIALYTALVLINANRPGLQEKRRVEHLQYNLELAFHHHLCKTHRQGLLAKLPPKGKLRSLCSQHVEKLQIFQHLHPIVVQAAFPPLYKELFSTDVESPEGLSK

Each compound was assayed against Nuclear receptor ROR-gamma (Mus musculus) (UniProt P51450) (assay: qHTS for inhibitors of ROR gamma transcriptional activity). Details: Drosophila S2 Gal4-RORgamma UAS-luciferase reporter, 20 h; activity change, negative = inhibition: at 53.6 µM (top of the series).
In short: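 Using a luciferase readout, inhibitors were identified by reduced reporter activity in Drosophila cells coexpressing a copper-inducible Gal4–ROR gamma fusion and UAS-driven Photinus luciferase, incubated 20 hr after 700 uM copper sulfate.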
With `CCOc1ccc(C(C)(C)C)cc1S(=O)(=O)n1nc(C)cc1C` the Potency was inconclusive: 5.62 µM [activator, single point].
In the case of `Cc1ccc(C(=O)C(C)Oc2cccc(NC(=O)c3ccco3)c2)cc1` (centres undefined), the Potency is reported as inconclusive: 7.94 µM [activator, partial curve].
For `CC1=NN(C(=O)CCc2ccccc2O)C(O)(C(F)(F)F)C1` (centres undefined), the Potency was active: 8.91 µM.
`Cc1ccc(N2CC(C(=O)Nc3nc4ccc(S(C)(=O)=O)cc4s3)CC2=O)cc1C` (centres undefined) was tested, and the Potency was “inactive”.
`COc1ccc(NC(=O)c2cccc(S(=O)(=O)N3CCCCCC3)c2)cc1` was tested, and the Potency was inconclusive: 28.2 µM [activator, single point].
In the case of `COc1ccc(N2CC(C)Cn3c2nc2c3c(=O)n(Cc3ccccc3)c(=O)n2C)c(OC)c1` (centres undefined), the Potency is reported as inconclusive: 25.1 µM [activator, single point].
With `CN(C)C(=O)c1nc2ccc(Cl)cn2c1CNCc1ccccc1OC(F)(F)F` the Potency was inconclusive: 12.6 µM [activator, single point].
In the case of `O=C(N/N=C/c1ccccc1F)c1cc2c(ccc3ccccc32)o1`, the Potency is reported as inconclusive: 22.4 µM [inhibitor, single point].
With `Cc1cc(Cl)ccc1NC(=S)NC1CCCC1` the Potency was active: 2.24 µM.
For `CC(C)(C)C(=O)Nc1ccc(N2CCN(c3ccc(C(F)(F)F)cn3)CC2)nc1`, the Potency was inconclusive: 1.78 µM [activator, full curve].
For `CCc1nc(N2CCN(CC(=O)NCC3CCCO3)CC2)c(C#N)c2c1COC(C)(C)C2` (centres undefined), the Potency was “inactive”.
With `Cc1nn(Cc2cccc(C(=O)N3N=C(C(F)F)CC3(O)C(F)F)c2)c(C)c1[N+](=O)[O-]` (centres undefined) the Potency was inconclusive: 35.5 µM [inhibitor, single point].
In the case of `CNc1nc(SCc2ccc(C)cc2)nc2c1CCCC2`, the Potency is reported as inconclusive: 6.31 µM [inhibitor, single point].
`O=C(Nc1cccc(-c2cnc3ccccc3n2)c1)c1cccc(NC(=O)c2ccco2)c1` was tested, and the Potency was inconclusive: 2.82 µM [activator, partial curve].
For `CCCn1c(SCc2ccc(Cl)cc2)nc2c1c(=O)[nH]c(=O)n2C`, the Potency was “inactive”.
With `Cc1[nH]n(-c2ccccc2)c(=O)c1C(C[N+](=O)[O-])c1ccc(F)cc1` (centres undefined) the Potency was inconclusive: 35.5 µM [inhibitor, single point].
`CC(C)(C)NC(=O)C(=O)NNC(=O)COc1ccc(Br)cc1` was tested, and the Potency was inconclusive: 35.5 µM [inhibitor, single point].
`Cc1cc(C)nc(N(C#N)CN2C(=O)c3ccccc3C2=O)n1` was tested, and the activity change, negative = inhibition was inactive: -19.3% [at 10 µM].
`O=C(CCN1C(=O)C2C3C=CC(C3)C2C1=O)N1CCN(c2cccc(Cl)c2)CC1` (centres undefined) was tested, and the Potency was “inactive”.
